Hit rate of the full screen: of about 52,000 sequences, about 210 (0.4%) were called active.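 How the source made its calls: active means gene whose silencing raises cell survival under the drug, median off-target-corrected z-score across its silencing RNAs 2 or more; inactive means the rest.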 This is one part of the list.
Test: Resistance to Poly (ADP-Ribose) Polymerase inhibitor: Gene Identification via Genome-wide siRNA Screen
Details: mouse BRCA2 R2336H ES cells, olaparib, CellTiter-Glo viability; active compounds read high
In short: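 Mouse BRCA2 R2336H ES cells were reverse-transfected with siRNA (20 nM final), treated at 48 h with 500 nM olaparib, and read by CellTiter-Glo after 72 h. Scores: MAD-based z per siRNA, median per gene, seed off-target correction.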

Sequence	z-score
CCUAGUCCUGAUUUAUCAGTT against Bat1a	inactive: -0.339
GGUCAAUUAUGAAGAGUUUTT against Calm3	inactive: 1.59
CGAAGUCUGAAACACAUGUTT against A730018C14Rik	inactive: 0.435
GCCACGGGUAUAUCUAUAGTT against Tigd4	inactive: -0.282
GCAAUGCGACGUGCUCUAUTT against LOC330863	inactive: -0.895
GCAAUUUCCUCUCGAGACGTT against Olfr750	inactive: 0.654
GGAAGGUGUUCGUAGAGAATT against Mad2l1	inactive: 1.54
GCAGCUCUAGGUGUUCAGUTT against Gje1	inactive: -0.154
GGAUUGUAAUCAAAUGUGCTT against Plekhh2	inactive: 0.147
GGCCUGUCUCUCUUAUUAATT against Btg2	inactive: -0.799
GAAAGAAACCAUGUUCACATT against 1110008K04Rik	inactive: 0.0619
CUUAGUGCUCUGGGAGCAGTT against Ms4a5	inactive: -0.433
UGCUGGAUUCCAUUGACCUTT against Olfr675	inactive: -0.109
GGUCUACAAUGUGAAAAUCTT against Clnk	inactive: -0.392
GGUUGUAGGAGAGGAAGCCTT against Apob48r	inactive: -0.228
CGACAUGAAGUGAUUCAUUTT against Zfp459	inactive: 0.0617
GUUACCCUGAAGGUCAAUATT against Gstm3	inactive: 1.36
GGUGUUGUCUGUGUUUUACTT against Olfr507	inactive: 0.382
CCAAUGUUACGAGAAACUUTT against Smug1	inactive: 0.958
GGACCAAAUGUAAGAAAAATT against Cstl1	inactive: -1.58
CCUAUAUUGAAUCUUCAACTT against Clptm1	inactive: -0.0402
GGAUGAGAGUAAGAUCUCGTT against Vipr2	inactive: 1.22
GUCCCUGAAAGAUGAAGAUTT against Gpsn2	inactive: 0.589
GGACAGUGACAAACUGAACTT against Caml	inactive: -1.18
GGUCGUGCAUGACAACUAUTT against Itk	inactive: -0.0931
GGCAUCUAAAGGAAAGAAATT against 1810030O07Rik	inactive: -1.87

Sequence	z-score
GGAAACAGAACCAAGUUAATT against Thy28	inactive: 0.333
GGAGAGAAUGUUUUGGAAUTT against Stat5b	inactive: 1.23
GGAAUUUGUGGAGAAACUATT against Gabbr1	inactive: -1.18
GGACGGAGCUGUAAUUGCATT against Arhgef12	inactive: -0.937
UUUCUUGGUGGGAUUGACUTT against Taar7b	inactive: 0.329
CGAUAGUUUACAUGCUGAATT against LOC73072	inactive: 0.417
GGUGACUUGGGCAUUUUUUTT against E130203B14Rik	inactive: -0.502
GGAAGAAACACCAGUAAGATT against Hbp1	inactive: 0.477
GGCUUUUCAAUUCCACCUUTT against Arid5b	inactive: 0.42
GGACUUGCAUUCUUAUGCUTT against 4930578C19Rik	inactive: -0.524
GGAAAUCAGAGAGAAGAUGTT against Nubp1	inactive: -0.45
GGACAAAGUCUAGAAACUATT against Lrrc2	inactive: -1.55
GGAAGACUAGGAGAGACGGTT against E030024M05Rik	inactive: -0.179
GAUCACACAUAUCAUCUCUTT against Dusp15	inactive: 0.101
GGUACUGUCGGUAUCCCACTT against Gcc1	inactive: -0.371
GGUAAAGAAUCUCAACAGCTT against Pet112l	inactive: 1.86
UUGUGACCAAUUUCUGAAUTT against 4921509E05Rik	inactive: -0.101
GCAAAUAUAGCAGUGAAAUTT against Nat1	inactive: -0.646
GCAUGAUGAUUCGUCAGACTT against Ero1l	inactive: 0.403
GGGUGAAACCCAUAAAAAUTT against 1700049G17Rik	inactive: -0.013
CGCUAUAACCAUUAGGUCUTT against Slc22a17	inactive: -0.0804
GCCGACUUUAAUGACUGCUTT against Cklfsf4	inactive: 0.322
GGGAAAUAAGGAGCUUCCUTT against Ptgs2	inactive: -0.389
GGCAUGAAUAGAAUUCUAGTT against Zfp367	inactive: 0.132
GGUUGCUGUGUUGAAGAAATT against Ttbk1	inactive: -0.052
GGAGUUGUUACUCUAUUUUTT against Pkd2l2	inactive: 2.24

In another format: results already given
Sequence | z-score
GCAAUUUCCUCUCGAGACGTT against Olfr750 | inactive: 0.654
GGAAGGUGUUCGUAGAGAATT against Mad2l1 | inactive: 1.54
GCAGCUCUAGGUGUUCAGUTT against Gje1 | inactive: -0.154
GGAUUGUAAUCAAAUGUGCTT against Plekhh2 | inactive: 0.147
GGCCUGUCUCUCUUAUUAATT against Btg2 | inactive: -0.799
GAAAGAAACCAUGUUCACATT against 1110008K04Rik | inactive: 0.0619
CUUAGUGCUCUGGGAGCAGTT against Ms4a5 | inactive: -0.433
UGCUGGAUUCCAUUGACCUTT against Olfr675 | inactive: -0.109
GGUCUACAAUGUGAAAAUCTT against Clnk | inactive: -0.392
GGUUGUAGGAGAGGAAGCCTT against Apob48r | inactive: -0.228
CGACAUGAAGUGAUUCAUUTT against Zfp459 | inactive: 0.0617
GUUACCCUGAAGGUCAAUATT against Gstm3 | inactive: 1.36
GGUGUUGUCUGUGUUUUACTT against Olfr507 | inactive: 0.382
CCAAUGUUACGAGAAACUUTT against Smug1 | inactive: 0.958
GGACCAAAUGUAAGAAAAATT against Cstl1 | inactive: -1.58
CCUAUAUUGAAUCUUCAACTT against Clptm1 | inactive: -0.0402
GGAUGAGAGUAAGAUCUCGTT against Vipr2 | inactive: 1.22
GUCCCUGAAAGAUGAAGAUTT against Gpsn2 | inactive: 0.589
GGACAGUGACAAACUGAACTT against Caml | inactive: -1.18
GGUCGUGCAUGACAACUAUTT against Itk | inactive: -0.0931
GGCAUCUAAAGGAAAGAAATT against 1810030O07Rik | inactive: -1.87
GGAAACAGAACCAAGUUAATT against Thy28 | inactive: 0.333
GGAGAGAAUGUUUUGGAAUTT against Stat5b | inactive: 1.23
GGAAUUUGUGGAGAAACUATT against Gabbr1 | inactive: -1.18
GGACGGAGCUGUAAUUGCATT against Arhgef12 | inactive: -0.937
UUUCUUGGUGGGAUUGACUTT against Taar7b | inactive: 0.329
CGAUAGUUUACAUGCUGAATT against LOC73072 | inactive: 0.417

Remaining list, next part.

Sequence	z-score
GGAUAAUGAGCUGAACAUATT against Nek7	inactive: -1.13
GGAUGCCCUUGUCACAAAGTT against Fbl	inactive: -1.31
GGCUGUUUCUGUCAUGGUUTT against Nup133	inactive: -1.67
GCUCAGAAUACAUGGAGCUTT against Btn1a1	inactive: -1.08
GGAAUGAUUUGGAAGAUAUTT against 1500002I11Rik	inactive: 0.148
GGACUCAACUGCACUGUUGTT against 9030607L17Rik	inactive: 0.0395
UAGAAUUGAUUGAGGACUCTT against Ly6c	inactive: 0.171
CGGUAUCACGGUUAUCCUUTT against Olfr215	inactive: 0.142
CCGAGUGCCGACAAAGUGATT against DXImx40e	inactive: 2.3
GGAGCCUUUAAUCUCAUUATT against Wbp1	inactive: 1.04
CCACAUGUUUGUCUCAAAATT against 4933433P14Rik	inactive: 0.91
GGGAGUGCCCUCCUAAUAGTT against Ofd1	inactive: -1.22
GCUCUACAUCGAAUUGCUGTT against Lig4	inactive: -0.874
GCUGGGCUUCAACGAUUACTT against Efna4	inactive: 0.78
CGGCUUACCGUAUUCAUCGTT against Dhx32	inactive: -0.784
CCCGCUGGUGUUCCUUUGUTT against 2610039C10Rik	inactive: -0.97
GCACUGCAACACUUGGUCCTT against Lcn12	inactive: 0.494
CCCAGAAUUUGAGUUACUCTT against D730018G16	inactive: 0.947
CCAGCAUAGAGUACCAGUGTT against Unc13d	inactive: -1.4
GGAUUACCUUUUGUGUGACTT against Capzb	inactive: 0.325
GGGAAAGAUUCAUGUUACUTT against Mug2	inactive: 0.0996
GCGAAAGCAGGAUACUCCUTT against BC051083	inactive: 0.269
GAACUGAGGAGCCUCAAAUTT against Klra20	inactive: 0.771
GGAAGCAAAGGAAAAGACUTT against Mia2	inactive: -1.39
GGUGGAAGCCGAAGUAUCUTT against Krt1-15	inactive: -0.0557
CAGGCAUCACUUCAGGGUGTT against Klra21	inactive: 0.47

Sequence	z-score
GCCAAUUGGCAGUUCUGCATT against Cd6	inactive: -0.171
GGUGGCUAAAAGCUCUUCCTT against Odc1	inactive: -0.0899
GGGUCUUCUGACAAUGCUUTT against Zfyve19	inactive: -0.447
GGAGCUCAGAUGCAAUGAGTT against Zfp393	inactive: -0.714
GGAUAACUAUAUUCCAGUGTT against Rhobtb3	inactive: -0.461
GGUCAGGUUCCUGACACAATT against Ppp6c	inactive: -1.47
GGAGCGGAUGGAUGUUUGUTT against App	inactive: -0.453
GGUAUAUUUGCCAAAUGAUTT against Klhdc1	inactive: 0.778
GGAUCUCUCACUGAUGCCATT against Ssfa2	inactive: -0.522
CCACCAGUAAGCAAAAGCGTT against Dtx1	inactive: -0.113
GCCUAAGUUCUAGCAAAAUTT against 4932411G14Rik	inactive: 0.544
GGAAAGAGGAAAUCUUUAGTT against Furin	inactive: 0.0641
GGAGGUUCAGAAAUUUGUCTT against Nola2	inactive: -0.204
GUGUGUUUACUCAUUUCCATT against H2-T3	inactive: -0.369
GGCAAAGUGAGUAAGACAGTT against Habp2	inactive: -0.453
GGAACAAAUCACCUGCUGUTT against Ext2	inactive: 0.122
GGACUCACAGGUUGAAAUATT against 1700018L24Rik	inactive: 0.136
GGAAUUUUCAAGUUGAUGUTT against Kmo	inactive: -0.227
GGCAUUGUUAGACUUGGCCTT against Slc7a7	inactive: -0.173
GGAUCAAUGUGUUCUCAUCTT against Cxcl5	inactive: 0.874
GCUUGCUCUCAUCGGAGAUTT against Bak1	inactive: -0.954
GCCUAUUGUAGUGUUACAUTT against LOC545288	inactive: 0.103
CGGGUUUAGGAGCAACCUUTT against Zdhhc4	inactive: -2.42
GCUUGAUAGGGAACUUAAUTT against Olfr805	inactive: -0.829
GCUGAAGAGGCGCAUACAUTT against 2610318N02Rik	inactive: -0.856
GGUGAUGUGGAAAAAUGCATT against Sult1e1	inactive: 1.1

From PubChem BioAssay AID1347423 (Functional Genomics Laboratory (NCATS/FGL), 2020)
